In the supplement of paper PMC4256282, “Profound Activity of the Anti-cancer Drug Bortezomib against Echinococcus multilocularis Metacestodes Identifies the Proteasome as a Novel Drug Target for Cestodes” (PLoS Neglected Tropical Diseases, 2014):
This is one part of the list. Repeats are few or missing, and single values can be far off.

tested on: Echinococcus multilocularis metacestodes; assay: vesicle damage (PGI release) relative to positive control DB1127 at 20 µM, DMSO subtracted; higher = more parasite damage; details: treatment time 5 days

SMILES	vesicle damage
C[N+]1(C)[C@@H]2C[C@@H](OC(=O)C(O)(c3cccs3)c3cccs3)C[C@H]1[C@@H]1O[C@@H]12 [Tiotropium Bromide]	-0.136%
NC(=O)c1cccnc1 [Nicotinamide]	-7.36%
CC(=O)O[C@]1(C(C)=O)CC[C@H]2[C@@H]3C=C(C)C4=CC(=O)CC[C@]4(C)[C@H]3CC[C@@]21C [Megestrol Acetate]	-3.12%
Oc1ncnc2[nH]ncc12 [Allopurinol]	-1.59%
CCOc1nc2cccc(C(=O)OC(C)OC(=O)OC3CCCCC3)c2n1Cc1ccc(-c2ccccc2-c2nn[nH]n2)cc1 (stereo not given) [Candesartan cilexetil]	102%
